Eleven molecules from patent publication US20040265797A1 can be followed below.

Sequences of proteins named here, by UniProt entry; tags and fusion partners are left off. Residues count along the entry.
UniProt Q03405, residues 23-299: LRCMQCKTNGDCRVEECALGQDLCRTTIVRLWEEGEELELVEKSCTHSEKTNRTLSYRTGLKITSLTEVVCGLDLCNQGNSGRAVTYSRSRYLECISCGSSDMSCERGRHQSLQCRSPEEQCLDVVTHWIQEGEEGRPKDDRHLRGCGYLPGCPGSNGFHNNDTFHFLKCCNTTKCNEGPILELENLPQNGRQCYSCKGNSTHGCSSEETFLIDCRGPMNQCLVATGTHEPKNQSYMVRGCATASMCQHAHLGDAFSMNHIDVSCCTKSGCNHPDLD

These are yes or no findings as the source states them, for the method shown. Some results given as binding are weak or reduced against the parent protein; the word gives no strength.

Assay [1] has as its target Soluble recombinant human urokinase receptor (suPAR) (human) (UniProt Q03405). In words: alanine scan of peptide 9; competition with phage displaying peptide 9.
Assay [2] has the same target. In words: competition with phage displaying peptide 25 for uPAR; Active? @ 40 µM.

B1: Analog 65 (peptide 9, Glu at position 2 to alanine) (peptide)
peptide: AAFFKLGPNGYVYLHSA
modifications: C-terminal carboxamide
Regarding B1, the binding entry in assay [1] is reported as “binds”.

B2: Analog 77 (peptide 9, Leu at position 14 to alanine) (peptide)
peptide: AEFFKLGPNGYVYAHSA
modifications: C-terminal carboxamide
For B2, the binding result in assay [1] was “binds”.

B3: Analog 7 (peptide)
peptide: AESTYHHLSLGYMYT
modifications: N-terminal acetyl; C-terminal amide (Ac-oligomer-NH2)
Regarding B3, the binding entry in assay [2] is recorded as “binds”.

B4: Analog 28 (peptide)
peptide: YHHLSLGYMYT
modifications: N-terminal acetyl; C-terminal amide (Ac-oligomer-NH2)
For the molecule B4, the binding entry in assay [2] is “binds”.

B5: Analog 18 (peptide)
peptide: YHHLSLGYMYTLN
modifications: N-terminal acetyl; C-terminal amide (Ac-oligomer-NH2)
For the molecule B5, the binding entry in assay [2] is “binds”.

B6: Analog 17 (peptide)
peptide: TYHHLSLGYMYTLN
modifications: N-terminal acetyl; C-terminal amide (Ac-oligomer-NH2)
B6: the binding entry in assay [2] is listed as “binds”.

B7: Analog 16 (peptide)
peptide: STYHHLSLGYMYTLN
modifications: N-terminal acetyl; C-terminal amide (Ac-oligomer-NH2)
As to B7, the binding entry in assay [2] is “binds”.

B8: Analog 6 (peptide)
peptide: AESTYHHLSLGYMYTL
modifications: N-terminal acetyl; C-terminal amide (Ac-oligomer-NH2)
As for B8, the binding entry in assay [2] is reported as “binds”.

B9: Analog 5 (peptide)
peptide: AESTYHHLSLGYMYTLN
modifications: N-terminal acetyl; C-terminal amide (Ac-oligomer-NH2)
Take B9: the binding result in assay [2] was “binds”.

B10: Analog 15 (peptide)
peptide: ESTYHHLSLGYMYTLN
modifications: N-terminal acetyl; C-terminal amide (Ac-oligomer-NH2)
In the case of B10, the binding entry in assay [2] was “binds”.

B11: Analog 67 (peptide 9, Phe at position 4 to alanine) (peptide)
peptide: AEFAKLGPNGYVYLHSA
modifications: C-terminal carboxamide
On to B11, for which, in assay [1], the binding entry is “binds”.
